{"source": "PubChem BioAssay AID2685", "about": "(National Center for Advancing Translational Sciences (NCATS), 2010)", "note": "Hit rate of the full screen: of about 320,000 compounds, about 2,100 (0.66%) were called active. The shares of active, inactive and inconclusive entries below differ from those in the screen. Calls follow the shape of the dose curve; as a rule, active = well fitted inhibition curve with a large enough effect in the signal ratio, with a control signal flat (not every such curve was filed as active); inconclusive = small, poorly fitted or top-dose-only effect, or effect the other way, or a change in a side signal; inactive = flat fitted curve, though single readings scatter; the % refers to the signal ratio. Potencies beside an inconclusive call are fits to weak or partial responses and may not hold up. % is scaled to controls: 0 for no effect and ±100 for the full control effect; potency is read from the fitted curve at half-maximal effect."}
{"assay": "qHTS Assay for Lipid Storage Modulators in Drosophila S3 Cells", "details": "BODIPY lipid droplet fluorescence, 18-24 h, cells fed with added oleic acid; lipid storage change, negative = inhibition: at 46.1 µM (top of the series) unless noted", "method_in_brief": "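Laser-scanning cytometry quantifies lipid droplet accumulation (500–530 nm total intensity; droplet/cell object ratio) in oleic acid-fed (400 uM added) Drosophila S3 cells treated with a concentration series. 20 uM Triacsin C defined 100% inhibition.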"}
{"compound": "CCOC(=O)Cc1nc2cc(Cl)ccc2o1", "lipid storage change, negative = inhibition": "inconclusive: 44.5%"}
{"compound": "CCOC(=O)c1cnc2c(C(=O)OC)cccc2c1NCCN1CCOCC1", "Potency": "inconclusive: 20.6 µM [activator, single point]"}
{"compound": "O=C(Nc1ccc(CN2CCOCC2)cc1)c1cc(Cl)ccc1Cl", "lipid storage change, negative = inhibition": "inconclusive: -45.3%"}
{"compound": "O=C1NC(=O)N(c2ccccc2)C1=O", "lipid storage change, negative = inhibition": "inconclusive: 71.1%"}
{"compound": "O=C(CCN1C(=O)S/C(=C\\c2cccs2)C1=O)NC1=NCCS1", "lipid storage change, negative = inhibition": "inconclusive: -92.3%"}
{"compound": "CCCOc1ccc(/C=C/c2c([N+](=O)[O-])c(=O)n(C)c(=O)n2C)cc1", "Potency": "inconclusive: 25.9 µM [falling, single point]"}
{"compound": "C/C(N)=C(/C#N)C(=O)CSc1nc2scc(-c3ccc(F)cc3)c2c(=O)n1C", "lipid storage change, negative = inhibition": "inconclusive: 12.7%"}
{"compound": "CCCN1CCN(S(=O)(=O)c2ccc3c(c2)OCCO3)CC1", "lipid storage change, negative = inhibition": "inconclusive: 5.87%"}
{"compound": "CCc1nnc(NC(=O)c2cccc(S(=O)(=O)N3CCCCC3)c2)s1", "Potency": "inconclusive: 29.1 µM [activator, single point]"}
{"compound": "O=C(Nc1ccc(N2CCCC2)cc1)c1ccccc1[N+](=O)[O-]", "Potency": "inconclusive: 29.1 µM [activator, single point]"}
{"compound": "COc1ccc(OC)c(NC(=O)COC(=O)c2ccc(OC)c(S(=O)(=O)N3CCCC3)c2)c1", "lipid storage change, negative = inhibition": "inconclusive: 17.4%"}
{"compound": "Cn1c(C(=O)O)c(CC(=O)Nc2ccc3c(c2)OCCO3)c2ccccc21", "lipid storage change, negative = inhibition": "inconclusive: 27.6%"}
{"compound": "CC(=O)NC1=C(Nc2ccc(N(C)C)cc2)C(=O)c2ccccc2C1=O", "Potency": "inconclusive: 29.1 µM [falling, single point]"}
{"compound": "CC(C)c1ccc(N2C(=O)CC(NNC(=O)c3ccccc3Cl)C2=O)cc1", "note": "(configuration not stated)", "lipid storage change, negative = inhibition": "inconclusive: -0.967%"}
{"compound": "Cc1nn2c(c1-c1ccccc1)N=C(c1ccco1)CC2c1ccccc1", "note": "(configuration not stated)", "Potency": "inconclusive: 2.06 µM [activator, full curve]"}
{"compound": "CC(C)(C)N1C(=O)[C@H]2[C@@H](c3ccc(Br)cc3)N3C(=O)N(c4cccc(Cl)c4)C(=O)[C@@]3(C)[C@H]2C1=O", "Potency": "inconclusive: 29.1 µM [cytotoxic, single point]"}
{"compound": "Cc1c(Cl)cccc1NC(=S)NN1CCOCC1", "Potency": "inconclusive: 3.26 µM [falling, single point]"}
{"compound": "COc1ccc(/C=N/NC(=O)c2cc(-c3cccn3C)n[nH]2)cc1OC", "Potency": "inconclusive: 13 µM [activator, partial curve]"}
{"compound": "O=C(CN(C(=O)CCC(=O)Nc1nccs1)c1ccc(F)cc1)NCc1ccccc1", "Potency": "inconclusive: 5.17 µM [activator, single point]"}
{"compound": "C1=C2C[N+]3(CCCC3)CC2Cc2ccc3ccccc3c21", "note": "(configuration not stated)", "lipid storage change, negative = inhibition": "inconclusive: -20.3%"}
{"compound": "O=C(Nc1ccc(NC(=O)c2ccco2)nc1)c1cccc(F)c1", "lipid storage change, negative = inhibition": "inconclusive: -8.65%"}
{"compound": "COc1ccc(Cl)cc1NC(=O)CN(C)C(=O)C1CCN(C(=O)Nc2ccccc2)CC1", "lipid storage change, negative = inhibition": "inconclusive: -25.9%"}
{"compound": "CC(OC(=O)c1ccc2c(=O)n3c(nc2c1)CCC3)C(=O)NC1CCCCC1C", "note": "(configuration not stated)", "lipid storage change, negative = inhibition": "inconclusive: -46.6%"}
{"compound": "CCOc1ccc2c(c1)-c1c(ssc1=S)C(C)(C)N2C(=O)CSC1=NCCS1", "Potency": "inconclusive: 29.1 µM [cytotoxic, single point]"}
{"compound": "Cn1ccnc1SCC(=O)n1c2c(c3ccccc31)CCCC2", "lipid storage change, negative = inhibition": "inconclusive: 40%"}
{"compound": "Nc1ccccc1C(=O)/C=C/c1ccc2c(c1)OCO2", "lipid storage change, negative = inhibition": "inconclusive: 23.9%"}
{"compound": "COC(=O)c1cc(S(=O)(=O)NCC2CCN(Cc3ccc(F)cc3)CC2)cn1C", "lipid storage change, negative = inhibition": "inconclusive: 39.9%"}
{"compound": "CCN(C(=S)Nc1cccnc1)c1cccc2ccccc12", "lipid storage change, negative = inhibition": "inconclusive: -17.9%"}
{"compound": "CCOC(=O)c1c(C)[nH]c(C(=O)OCCOc2ccccc2C)c1C", "lipid storage change, negative = inhibition": "inconclusive: -26.1%"}
{"compound": "Cc1ccc(S(=O)(=O)CCC(=O)NC2CCCC2)cc1", "lipid storage change, negative = inhibition": "inconclusive: 5.66%"}
{"compound": "CC1(C)CC(=O)/C(=C(\\O)c2ccccc2)C(=NCCc2ccccc2)C1", "Potency": "inconclusive: 29.1 µM [activator, single point]"}
{"compound": "CCOc1ccc(-n2ccc(=O)c(C(=O)O)n2)cc1", "lipid storage change, negative = inhibition": "inconclusive: 35.2%"}
{"compound": "CC(=O)Nc1cn(-c2ccccc2)nc1-c1ccccc1", "lipid storage change, negative = inhibition": "inconclusive: -22.8%"}
{"compound": "Cc1cc(C(=O)COC(=O)C23CC4CC(CC(O)(C4)C2)C3)c(C)n1-c1c(C)n(C)n(-c2ccccc2)c1=O", "lipid storage change, negative = inhibition": "inconclusive: 2.41%"}
{"compound": "Cc1ccc(OCC(=O)NCCC2=CCCCC2)cc1", "lipid storage change, negative = inhibition": "inconclusive: 6.05%"}
{"compound": "COc1ccc[nH]c1=O", "lipid storage change, negative = inhibition": "inconclusive: -29.5%"}
{"compound": "Cc1cccn2cc(-c3ccc(F)cc3)nc12", "lipid storage change, negative = inhibition": "inconclusive: 27.1%"}
{"compound": "CCOC(=O)N1CCN(S(=O)(=O)c2ccc3c(c2)CC(C)N3C(C)=O)CC1", "note": "(configuration not stated)", "lipid storage change, negative = inhibition": "inconclusive: -44.7%"}
{"compound": "O=C(Nc1ccon1)c1cccc(S(=O)(=O)N2CCCCCC2)c1", "Potency": "inconclusive: 0.259 µM [falling, full curve, poor fit]"}
{"compound": "Cc1ccc(C(=O)C2=C(O)C(=O)N(c3ncccn3)C2c2cccc(Cl)c2)o1", "note": "(configuration not stated)", "lipid storage change, negative = inhibition": "inconclusive: 89.9%"}
{"compound": "CN(C)C(CNC1CC(C)(C)NC(C)(C)C1)c1cccc(F)c1", "note": "(configuration not stated)", "Potency": "inconclusive: 1.3 µM [falling, full curve]"}
{"compound": "N#Cc1ccccc1NC(=O)c1ccc2c(c1)OCCO2", "lipid storage change, negative = inhibition": "inconclusive: 35.5%"}
{"compound": "COc1ccc(N=C2SCC(=O)N2c2ccc(OC)cc2)cc1", "Potency": "inconclusive: 1.84 µM [rising, partial curve, poor fit]"}
{"compound": "O=C(COC(=O)c1cc(-c2cccc3ccccc23)nc2ccccc12)NC1CCS(=O)(=O)C1", "note": "(configuration not stated)", "lipid storage change, negative = inhibition": "inconclusive: -37.1%"}
{"compound": "COc1ccc(C(CC(=O)Nc2cc(OC)cc(OC)c2)n2cccc2)cc1", "note": "(configuration not stated)", "lipid storage change, negative = inhibition": "inconclusive: 34.7%"}
{"compound": "COc1cccc2c1OC1(C)CC2/C(=C(\\C)O)C(=O)N1", "note": "(configuration not stated)", "lipid storage change, negative = inhibition": "inconclusive: -23.4%"}
{"compound": "COc1ccc2[nH]c(C)c(CCNc3ccc(C(F)(F)F)cc3[N+](=O)[O-])c2c1", "lipid storage change, negative = inhibition": "inconclusive: -21.3%"}
{"compound": "O=C(Nc1ccc2ccccc2c1)c1ccccc1F", "Potency": "inconclusive: 29.1 µM [activator, single point]"}
{"compound": "O=C(NCc1ccco1)c1ccc(=O)oc1", "Potency": "inconclusive: 0.206 µM [falling, full curve, poor fit]"}
{"compound": "COc1cc([N+](=O)[O-])ccc1NC(=O)C[n+]1cccc(C)c1", "lipid storage change, negative = inhibition": "inconclusive: -10%"}
{"compound": "COc1ccc(S(=O)(=O)N2CCN(CCC(=O)Nc3ccccc3F)CC2)cc1", "Potency": "inconclusive: 10.3 µM [activator, partial curve, poor fit]"}
{"compound": "CCCSc1ncc(Cl)c(C(=O)Nc2ccc(S(=O)(=O)Nc3ncccn3)cc2)n1", "lipid storage change, negative = inhibition": "inconclusive: 32.1%"}
{"compound": "COc1cccc(NC(=O)Cn2c3ccc(F)cc3c3nc4n(c(=O)c32)CCS4)c1", "lipid storage change, negative = inhibition": "inconclusive: -64.6%"}
{"compound": "COCCn1c(SCC(=O)Nc2ncc(C)s2)nc2sc3c(c2c1=O)CCC3", "Potency": "inconclusive: 0.0651 µM [activator, full curve, poor fit]"}
{"compound": "CC1CCCCN1C(=O)c1ccc(Br)o1", "note": "(configuration not stated)", "lipid storage change, negative = inhibition": "inactive"}
{"compound": "CC(=O)Nc1ccc(S(=O)(=O)c2cc(O)ccc2O)cc1", "lipid storage change, negative = inhibition": "inconclusive: 183%"}
{"compound": "Cc1ccccc1C(=O)N1CCC(C(=O)Nc2ccc3c(c2)OCCO3)CC1", "lipid storage change, negative = inhibition": "inconclusive: -1.24%"}
{"compound": "Oc1cccc2cc3cccc(O)c3c(O)c12", "lipid storage change, negative = inhibition": "inconclusive: 47.7%"}
{"compound": "COc1ccc(NC(=S)NCc2ccc3c(c2)cc(C)n3C)cc1", "lipid storage change, negative = inhibition": "inconclusive: 28.1%"}
{"compound": "CC1CC(C(F)(F)F)n2ncc(C(=O)O)c2N1", "note": "(configuration not stated)", "lipid storage change, negative = inhibition": "inconclusive: 9.53%"}
{"compound": "CCOc1ccccc1NC(=O)C1CCCN(C(=O)NCc2ccccc2)C1", "note": "(configuration not stated)", "Potency": "inconclusive: 6.51 µM [rising, single point]"}
{"compound": "CCCCNC(=S)NNC(=O)c1csc2c1CCC(C)C2", "note": "(configuration not stated)", "lipid storage change, negative = inhibition": "inconclusive: 2.65%"}
{"compound": "O=C(Cc1n[nH]c(=O)c2ccccc12)OCC(=O)N(Cc1ccccc1)Cc1ccccc1", "lipid storage change, negative = inhibition": "inconclusive: 22.5%"}
{"compound": "CCc1cccc(C)c1NC(=O)C1CCCN1C(=O)NCc1ccccc1", "note": "(configuration not stated)", "Potency": "inconclusive: 23.1 µM [falling, single point]"}
{"compound": "O=C(Cc1ccccc1)NCC(=O)OCC(=O)c1ccc(Cl)cc1", "Potency": "inconclusive: 1.16 µM [activator, full curve]"}
{"compound": "COc1ccc(C2=NS(=O)(=O)N(C)C(C(=O)Nc3cc(C)ccc3O)=C2)cc1OC", "lipid storage change, negative = inhibition": "inactive"}
{"compound": "CC(=O)Nc1cccc(NC(=O)C(C)N2c3cccc4cccc(c34)S2(=O)=O)c1", "note": "(configuration not stated)", "lipid storage change, negative = inhibition": "inactive"}
{"compound": "COCCN(C(=O)COC(=O)c1cccnc1Cl)c1c(N)n(Cc2ccccc2)c(=O)[nH]c1=O", "Potency": "inconclusive: 4.61 µM [activator, partial curve]"}
{"compound": "Nc1ccc(S(=O)(=O)N2CCOCCOCCOCCOCCOCC2)cc1", "lipid storage change, negative = inhibition": "inconclusive: 33.1%"}
{"compound": "Cc1nc(C)c(-c2csc(Nc3ccc(F)cc3)n2)s1", "lipid storage change, negative = inhibition": "inconclusive: -12.6%"}
{"compound": "O=[N+]([O-])c1ccc(-c2nc(-c3ccncc3)no2)cc1", "Potency": "inconclusive: 9.2 µM [activator, partial curve]"}
{"compound": "CCCCNC(=O)N(C)c1nc2ccccc2s1", "lipid storage change, negative = inhibition": "inconclusive: -0.374%"}
{"compound": "CCCNS(=O)(=O)c1ccc(CCC(=O)Nc2cc(Cl)ccc2Oc2ccccc2)cc1", "lipid storage change, negative = inhibition": "inconclusive: -19.1%"}
{"compound": "O=C(CSc1n[nH]c(=O)n1C1CC1)Nc1cc(Cl)ccc1Oc1ccccc1", "lipid storage change, negative = inhibition": "inconclusive: -9.09%"}
{"compound": "COc1ccc2[nH]c(=O)c(CN(Cc3cccnc3)S(=O)(=O)c3ccccc3F)cc2c1", "lipid storage change, negative = inhibition": "inconclusive: -163%"}
{"compound": "C=CCn1c(CNS(=O)(=O)c2ccc(Br)cc2)n[nH]c1=S", "lipid storage change, negative = inhibition": "inconclusive: 26.1%"}
{"compound": "O=C(NCCc1cccnc1)C1CCC(=O)N(Cc2ccc(Cl)cc2)C1", "note": "(configuration not stated)", "lipid storage change, negative = inhibition": "inconclusive: 22.1%"}
